# Source: PubChem BioAssay AID743255 (National Center for Advancing Translational Sciences (NCATS), 2014)
# By UniProt entry, the sequences of proteins in these tests, tags left out. Where a name states a change or a piece, a line headed by the entry shows the natural chain unless it says otherwise.
# UniProt O94782: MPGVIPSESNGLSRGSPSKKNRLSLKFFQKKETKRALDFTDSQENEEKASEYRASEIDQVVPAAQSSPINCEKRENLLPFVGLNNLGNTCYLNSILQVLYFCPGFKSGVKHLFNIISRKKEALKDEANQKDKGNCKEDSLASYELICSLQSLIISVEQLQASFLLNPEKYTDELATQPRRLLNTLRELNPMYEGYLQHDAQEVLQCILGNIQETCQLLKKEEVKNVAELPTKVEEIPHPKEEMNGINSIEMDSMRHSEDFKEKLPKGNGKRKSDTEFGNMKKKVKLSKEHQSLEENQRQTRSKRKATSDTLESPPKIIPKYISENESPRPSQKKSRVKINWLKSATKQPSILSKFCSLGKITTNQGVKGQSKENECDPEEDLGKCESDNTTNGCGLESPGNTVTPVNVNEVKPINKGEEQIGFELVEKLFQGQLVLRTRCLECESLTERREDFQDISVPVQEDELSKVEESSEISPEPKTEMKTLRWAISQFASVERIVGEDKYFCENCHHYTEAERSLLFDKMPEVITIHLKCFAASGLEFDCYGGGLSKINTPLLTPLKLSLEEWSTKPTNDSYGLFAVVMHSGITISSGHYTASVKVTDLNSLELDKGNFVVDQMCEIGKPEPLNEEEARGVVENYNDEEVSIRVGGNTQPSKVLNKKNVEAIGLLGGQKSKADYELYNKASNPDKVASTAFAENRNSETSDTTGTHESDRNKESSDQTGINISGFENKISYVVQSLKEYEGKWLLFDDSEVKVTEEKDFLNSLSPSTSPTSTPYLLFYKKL
# Among all 390,000 compounds or so, about 910 (0.23%) were called active. This list was built around the results that the source calls inconclusive (neither active nor inactive); the mix of calls is not that of the screen. Calls follow the shape of the dose curve; as a rule, active = well fitted inhibition curve with a large enough effect; inconclusive = small, poorly fitted or top-dose-only effect; inactive = no such curve, though single readings can be large or run the other way. Potencies beside an inconclusive call are fits to weak or partial responses and may not hold up.
# Target: Ubiquitin carboxyl-terminal hydrolase 1 (Homo sapiens) (UniProt O94782)
# Assay: Inhibitors of USP1/UAF1: Primary Screen; also: nearly all actives have a fitted effect of over 60% in size
# Settings: recombinant USP1/UAF1, Ub-Rhodamine cleavage fluorescence; activity change, negative = inhibition: at 57.1 µM (top of the series)
# Outline: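 USP1/UAF1 complex at 1 nM was preincubated with compound for 15 min at room temperature, then Ub-Rho substrate (150nM final) was added. Fluorescence (480/540 nm) was read kinetically, 6 reads every 60 seconds.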
# % is scaled to controls: 0 for no effect and ±100 for the full control effect; potency is read from the fitted curve at half-maximal effect.
Compound,Potency,"activity change, negative = inhibition"
COCC(C)n1c(C)cc(C(=O)CSc2ncccn2)c1C (configuration not stated),"inconclusive: 7.94 µM [inhibitor, partial curve, poor fit]",–
CC(=O)CN1C(=O)NC(c2ccccc2)(c2ccccc2)C1=O,"inconclusive: 3.98 µM [inhibitor, partial curve]",–
CCOC(=O)c1c(C)[nH]c(C(=O)OCC(=O)N(CC(C)C)c2c(N)n(Cc3ccccc3)c(=O)[nH]c2=O)c1C,"inconclusive: 39.8 µM [inhibitor, partial curve, poor fit]",–
C=CCn1c(=N)n(CC(=O)c2ccc(Br)cc2)c2ccccc21,–,inactive: -1.82%
CC(C)C(NC(=O)c1ccc(C(C)(C)C)cc1)C(=O)NCC1(N(C)C)CCCCC1 (configuration not stated),"inconclusive: 28.2 µM [inhibitor, partial curve]",–
CC(C)(Sc1ccc(CCN(CCCCC2CCCCC2)C(=O)NC2CCCCC2)cc1)C(=O)O,"inconclusive: 44.7 µM [inhibitor, partial curve, poor fit]",–
C#CCN(C[C@H]1[C@H](OC(=O)Nc2cccs2)[C@H](OC(=O)Nc2cccs2)C[C@H]2C(=O)N(c3ccccc3)C(=O)[C@@H]12)S(=O)(=O)c1ccc(C)cc1,"inconclusive: 0.398 µM [inhibitor, full curve]",–
CC1CCCCN1S(=O)(=O)c1cc2c(=O)nc3ccccn3c2cc1Cl (configuration not stated),"inconclusive: 3.98 µM [inhibitor, full curve, poor fit]",–
CCOC(=O)N1CCN(C(=O)CCN2C(=O)/C(=C\c3cccc(OC)c3)SC2=S)CC1,"inconclusive: 12.6 µM [inhibitor, partial curve]",–
Cc1nn(C)c(C)c1S(=O)(=O)N(CC(=O)NCc1cccs1)c1ccc(C(C)C)cc1,"inconclusive: 31.6 µM [inhibitor, partial curve]",–
CCc1ccc(C(=O)CSc2n[nH]c(C)n2)cc1,–,inactive: -4.85%
COc1ccccc1CN(C)C(=O)c1sccc1-c1ccccc1,"inconclusive: 70.8 µM [inhibitor, partial curve, poor fit]",–
CC(C)N1CCC(NC(=O)Nc2ccc3c(c2)OCO3)CC1,"inconclusive: 7.94 µM [inhibitor, partial curve, poor fit]",–
Cc1c(C)n(Cc2ccccc2)c2ccc(C(=O)NCc3ccc(OC(C)C)cc3)cc12,"inconclusive: 0.224 µM [inhibitor, full curve, poor fit]",–
O=C(Oc1ccccc1Cl)c1cc(-c2ccc3c(c2)OCCO3)on1,"inconclusive: 44.7 µM [inhibitor, partial curve, poor fit]",–
COC/C=C/C1=CC2=CC(=O)C(C)(OC(=O)c3cnc4ccccc4n3)C(=O)C2=CN1Cc1ccc(OC)cc1 (configuration not stated),"inconclusive: 44.7 µM [inhibitor, partial curve, poor fit]",–
CCCC(=O)C1=C(c2ccc(C)cc2)N(C(=O)CCC)n2cnnc2S1,"inconclusive: 39.8 µM [inhibitor, partial curve, poor fit]",–
COc1ccc(C(=O)NCC(c2ccco2)N2CCOCC2)cc1 (configuration not stated),"inconclusive: 0.631 µM [inhibitor, full curve, poor fit]",–
O=C(CSC(=S)N1CCCC1)N1CCN(S(=O)(=O)c2cccc([N+](=O)[O-])c2)CC1,–,inactive: 5.38%

Compound,Potency,"activity change, negative = inhibition"
COCOCCn1cc(CN2CCS(=O)(=O)N(Cc3ccc(-c4ccc(C)cc4)cc3)C(CC(C)C)C2=O)nn1 (configuration not stated),–,inactive: -10.9%
C/C=C/c1ccc(OCC(=O)NCc2ccccc2OC)c(OC)c1,"inconclusive: 17.8 µM [inhibitor, partial curve]",–
C#CCOCCOCCOCCNc1nc(N2CCN(C(=O)C([C@@H](C)CC)n3cc(C(N)Cc4ccc(O)cc4)nn3)CC2)nc(N2CCN(C(=O)[C@H](CCC(=O)O)n3cc(C(N)CC(C)C)nn3)CC2)n1 (some centres not stated),"inconclusive: 0.251 µM [inhibitor, full curve, poor fit]",–
O=C(CSc1nc(-c2ccccc2)c2ccccc2n1)Nc1ccc(F)cc1,–,inactive: -14.2%
COc1ccc(-c2nnc(SCC(=O)N3CCCC3)o2)c(OC)c1,"inconclusive: 22.4 µM [inhibitor, partial curve, poor fit]",–
[O-][n+]1nc2ccccc2c2ccccc21,"inconclusive: 4.47 µM [inhibitor, full curve, poor fit]",–
O=C(CN(c1cc(C(F)(F)F)ccc1Cl)S(=O)(=O)c1ccccc1)NCCc1ccccc1,–,inactive: -32.2%
CC1=NN(C(N)=S)C(=O)C1N=Nc1ccc(O)cc1 (configuration not stated),–,inactive: -16.9%
CCCCn1c(O)c(N=Nc2ccccc2O)c2ccccc21,"inconclusive: 35.5 µM [inhibitor, partial curve]",–
CCn1nnc2cc(C(=O)Nc3ccc(C)cc3Br)ccc21,"inconclusive: 17.8 µM [inhibitor, partial curve]",–
CCCCc1cc(=O)oc2c(C)c(OCc3nn[nH]n3)ccc12,"inconclusive: 2.24 µM [inhibitor, partial curve]",–
COC(=O)[C@H](Cc1ccccc1)NC(=O)O[C@H]1C(=O)c2ccc(OC)cc2O[C@@H]1c1ccc2c(c1)OCO2,"inconclusive: 44.7 µM [inhibitor, partial curve, poor fit]",–
CCN(CC)CC#CC(C)OCOCC#CCOC (configuration not stated),"inconclusive: 35.5 µM [inhibitor, partial curve]",–
Cc1ccc(S(=O)(=O)N(C)c2ccc(C(=O)N3CCc4ccccc4C3)cc2)cc1,"inconclusive: 6.31 µM [inhibitor, full curve, poor fit]",–
CCc1ccc(/C=C2\SC(=S)N(CCCC(=O)Nc3ccccc3C(=O)O)C2=O)cc1,"inconclusive: 44.7 µM [inhibitor, partial curve, poor fit]",–
COc1cc(/C=C/C(=O)N2CCN(c3n[nH]c(=O)[nH]c3=O)CC2)cc(OC)c1OC,"inconclusive: 28.2 µM [inhibitor, single point]",–
CCN(CC)S(=O)(=O)c1ccc(N2CCOCC2)c(NC(=O)c2ccc(F)cc2)c1,–,inactive: -14.6%
COc1ccc(NC(=O)c2ccc3c(c2)n(C)c(=O)n3C)cc1,"inconclusive: 35.5 µM [inhibitor, single point]",–

# Pulled one by one from the entries so far:
Compound,Potency,"activity change, negative = inhibition"
CCCCn1c(O)c(N=Nc2ccccc2O)c2ccccc21,"inconclusive: 35.5 µM [inhibitor, partial curve]",–
CC(C)N1CCC(NC(=O)Nc2ccc3c(c2)OCO3)CC1,"inconclusive: 7.94 µM [inhibitor, partial curve, poor fit]",–
